Test results taken from patent publication US7592330B2, “Methods and compositions for preserving the viability of photoreceptor cells” (Massachusetts Eye and Ear Infirmary, priority 2005, dated 2009).
For at least one compound, name, drawing or mass did not settle the structure.

Key:
photoreceptor cells = test: FK506 treatment in experimental retinal detachment, TUNEL count (Example 4, Experiment #3); type: in vivo, Brown Norway rats; conditions: FK506 5 mg/kg/day by gavage; three days after detachment; vs vehicle control
optic nerve injury = conditions: oral administration (Freeman et al. 2000); cited from earlier work
cleaved calcineurin = conditions: cited from earlier work

C=CC[C@@H]1/C=C(\C)C[C@H](C)C[C@H](OC)[C@H]2O[C@@](O)(C(=O)C(=O)N3CCCC[C@H]3C(=O)O[C@H](/C(C)=C/[C@@H]3CC[C@@H](O)[C@H](OC)C3)[C@H](C)[C@@H](O)CC1=O)[C@H](C)C[C@@H]2OC [FK506, FK506 (tacrolimus)]
apoptotic (TUNEL-positive) photoreceptor cells (photoreceptor cells): fewer apoptotic photoreceptor cells
neuroprotection (optic nerve injury): neuroprotective
phosphatase activity of cleaved calcineurin (cleaved calcineurin): inhibited
